PubChem BioAssay AID652259 – Drosophila RNAi Screening Center – 2013
Assay: 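Genome-wide hunt for genes that control Wingless pathway activity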 (primary screen). Cell system: Drosophila clone 8 imaginal disc epithelial cells. Knock-down reagent: long dsRNA against Drosophila genes. Conditions: pathway stimulated by co-transfected Wingless expression plasmid. Measured: 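Dual luciferase reads per well after Wingless plasmid stimulation: reporter firefly light and Renilla control light; activity is firefly divided by Renilla, a ratio not deposited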. Scale: firefly reporter light: higher = more Wg reporter light, before normalisation; Renilla control light: higher = more transfected or surviving cells. Rule for the call: 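Strong candidates differ from their plate mean by at least two out of four per-plate statistical tests; weak candidates meet just one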. Calls: active = candidate regulator (raises or lowers reporter); inactive = not a candidate.
The deposit covers about 22,000 reagents; below is an unselected part of those that have a named target and a result. Over the whole deposit, 233 (1.1%) got an active call. 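Light values are raw, unnormalised plate reads; the ratio scores behind the reporter calls were not deposited.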 Reagents against one gene are numbered here. Reagent sequences are not shown. Not given: the amount of reagent, the time to read-out, the dose of the treatment.

| predicted target | reagent | reporter change call, replicate 1 | firefly reporter light, replicate 1 | firefly reporter light, replicate 2 | Renilla control light, replicate 1 | Renilla control light, replicate 2 | Call |
| --- | --- | --- | --- | --- | --- | --- | --- |
| CG8563 | 1 | – | 1115 | 5145 | 1030 | 2503 | inactive |
| CG31342 | 1 | – | 9753 | – | 3425 | – | inactive |
| CG31342 | 2 | – | 12672 | – | 2387 | – | inactive |
| mRpL12 (mitochondrial ribosomal protein L12) | 1 | – | 4359 | – | 1373 | – | inactive |
| Den1 (Deneddylase 1) | 1 | – | 7804 | – | 2972 | – | inactive |
| CG33267 | 1 | – | 3221 | – | 1520 | – | inactive |
| CG1309 | 1 | – | 5299 | – | 3196 | – | inactive |
| Ets98B (Ets at 98B) | 1 | – | 11644 | 7.59e5 | 4957 | 3.23e5 | inactive |
| CG7886 | 1 | – | 7941 | – | 1489 | – | inactive |
| Phae1 (Phaedra 1) | 1 | – | 3360 | 10825 | 1800 | 4436 | inactive |
| CG17350 | 1 | – | 2747 | 4577 | 939 | 1862 | inactive |
| lbe (ladybird early) | 1 | – | 39370 | – | 7077 | – | inactive |
| Pif2 (PFTAIRE-interacting factor 2) | 1 | – | 13058 | – | 3200 | – | inactive |
| dpr11 (defective proboscis extension response 11) | 1 | – | 10841 | – | 2225 | – | inactive |
| dpr11 (defective proboscis extension response 11) | 2 | – | 18946 | – | 2626 | – | inactive |
| dpr11 (defective proboscis extension response 11) | 3 | – | 12626 | – | 3968 | – | inactive |
| CG17959 | 1 | – | 15384 | – | 11396 | – | inactive |
| Trf2 (TATA box binding protein-related factor 2) | 1 | Wg reporter activity raised | 1.57e5 | – | 8176 | – | active |
| CG18233 | 1 | – | 4920 | – | 2006 | – | inactive |
| PGRP-LC (Peptidoglycan recognition protein LC) | 1 | – | 1946 | – | 513 | – | inactive |
| PGRP-LC (Peptidoglycan recognition protein LC) | 2 | – | 7826 | – | 4420 | – | inactive |
| PGRP-LC (Peptidoglycan recognition protein LC) | 3 | – | 3883 | – | 2261 | – | inactive |
| CG1695 | 1 | – | 21002 | – | 12148 | – | inactive |
| CG9254 | 1 | – | 3283 | 9752 | 1362 | 3507 | inactive |
| stumps | 1 | – | 4378 | – | 932 | – | inactive |
| stumps | 2 | – | 7353 | – | 2048 | – | inactive |
| stumps | 3 | – | 5090 | – | 2149 | – | inactive |
| Gr59c (Gustatory receptor 59c) | 1 | – | 3504 | 6016 | 778 | 2392 | inactive |
| CG17549 | 1 | – | 14176 | – | 4963 | – | inactive |

2 consecutive records already listed, for reference:
| predicted target | reagent | reporter change call, replicate 1 | firefly reporter light, replicate 1 | firefly reporter light, replicate 2 | Renilla control light, replicate 1 | Renilla control light, replicate 2 | Call |
| --- | --- | --- | --- | --- | --- | --- | --- |
| mRpL12 (mitochondrial ribosomal protein L12) | 1 | – | 4359 | – | 1373 | – | inactive |
| Den1 (Deneddylase 1) | 1 | – | 7804 | – | 2972 | – | inactive |
